{"source": "patent US4543349A", "about": "(priority 1984, dated 1985)", "key": {"[1]": {"experiment": "general procedure: Boc solid-phase peptide synthesis; Boc-Cys-Merrifield resin (Example 7); DCC / 1-hydroxybenzotriazole (solution tail coupling)", "details": "late stage modification step"}, "[2]": {"experiment": "general procedure: Boc solid-phase peptide synthesis; Merrifield resin; DCC / 1-hydroxybenzotriazole (solution tail coupling)", "details": "whole synthesis, scale 0.5 mmole"}}, "note": "For part of these data: Some peptides are written in HELM: one residue between dots, names in brackets for other building blocks, links after the first $.", "data": [{"substance": "PEPTIDE1{[Pmp].[D-Tyr(Et)].F.V.N.C.[Cad]}$PEPTIDE1,PEPTIDE1,1:R3-6:R3$$$V2.0", "values": [{"measurement": "step yield", "setting": "[1]", "result": 13, "unit": "%"}]}, {"substance": "PEPTIDE1{[Pmp].[D-Tyr(Et)].F.V.N.C.P.[Cad]}$PEPTIDE1,PEPTIDE1,1:R3-6:R3$$$V2.0", "values": [{"measurement": "step yield", "setting": "[1]", "result": 30, "unit": "%"}]}, {"substance": "PEPTIDE1{[Pmp].[dY].F.V.N.C.P.[Cad]}$PEPTIDE1,PEPTIDE1,1:R3-6:R3$$$V2.0", "values": [{"measurement": "step yield", "setting": "[1]", "result": 17, "unit": "%"}]}, {"substance": "D-Tyr(Et)^2 -Pro^7 peptide", "values": [{"measurement": "isolated mass", "setting": "[2]", "result": 189, "unit": "mg"}]}, {"substance": "PEPTIDE1{[Pmp].[D-Tyr(Et)].F.V.N.C.P.[Put(G)]}$PEPTIDE1,PEPTIDE1,1:R3-6:R3$$$V2.0", "values": [{"measurement": "step yield", "setting": "[1]", "result": 64, "unit": "%"}, {"measurement": "final purity (method not given)", "setting": "[1]; HPLC (5μ Ultrasphere ODS / C-18)", "result": 85, "unit": "%"}]}]}
